Experimental data taken from US7608683B2, “Stress proteins and peptides and methods of use thereof” (The Regents of the University of California, priority 2000, dated 2009).
At least one peptide structure holds a part that was inferred or is arguable (an end, a ring closure or a residue). Where a SMILES comes first, the peptide text is derived from it. The star is where a group is joined. Biotin = O=C1N[C@H]2[C@H](CS[C@H]2CCCCC(=O)*)N1

What was measured:
[1] = test system: PBMCs from patients with RA; experiment: T cell proliferation assay, PBMC of RA patients in the dnaJP1 trial; type: cell-based, human
Text: FIG. 20A-L Treatment-induced modulation of T cell responses to dnaJP1. PBMC immune responses to dnaJP and controls from patients enrolled in the trial (n=15). T cell-proliferative response after in vitro culture with dnaJP1(a) or an irrelevant altered peptide ligand (b) in a standard proliferation assay. Phytohemagglutinin (a, ▴) was used as a positive control for T cell proliferation. […] Intracellular production of IL-2, IFN-γ, and TNF-α in response to dnaJP1 (c, e, and g) or PADRE peptide (d-f and h, respectively) at day 0 assessed at monthly intervals during treatment. Cytokine production is expressed as the percentage of CD3/cytokine double-positive cells measured by FACS in antigen-stimulated cultures, nonstimulated cultures (y axis). Error bars represent SD of the mean. Intracellular production of IL-4 (i) and IL-10 (k) after in vitro culture with dnaJP1 or with PADRE (j and l) at days 0, 56, and 168 of the treatment period.
T Cell Proliferation Assays. Peripheral blood mononuclear cells (PBMCs) were cultured in triplicate in […] u-shaped bottom wells (Costar, Cambridge, Mass.) at 5×10^5 cells per well for 120 h with or without antigen. Phytohaemagglutinin (2 mg/ml) was used as a positive control. For the final 16 h, cells were pulsed with [3H]thymidine (Amersham Pharmacia International, Bucks, United Kingdom). Thymidine uptake was measured by using a liquid scintillation counter. Results are expressed as a mean cpm of triplicate cultures. The magnitude of the response is expressed as stimulation index: the mean cpm of stimulated/nonstimulated cultures.
Antigens. Peptides were synthesized as C-terminal amides and were purified by reversed-phase HPLC. Peptides were N-biotinylated during synthesis (only one biotin molecule per peptide, 100% biotinylation; Synthetic Biomolecules, San Diego). The following peptides were used: dnaJP1 ([…]) (SEQ ID NO. 10), dnaJPv ([…]) (SEQ ID NO. 11), PADRE (+) (KJVAAWTLKAA-a) (SEQ ID NO. 34), and PADRE (−) peptide (UAJAAAATLKAA) (SEQ ID NO. 35) (10 mg/ml). dnaJPv is identical to dnaJP1 except for the two N-terminal amino acids. […] It was therefore used as negative control in the proliferation assays. PADRE (+) has good pan-DR binding and antigenic properties, and it has therefore been used as positive control in measuring cytokine production by intracellular FACS analysis. […] It has been therefore used as negative control to identify background in the T cell capture (TCC) assay.

[2] = test system: PBMCs from patients with RA; experiment: intracellular cytokine staining (FACS), PBMC of RA patients in the dnaJP1 trial; type: cell-based, human
[3] = test system: TCC-sorted dnaJP1-specific T cells / CD4+CD25bright cells of RA patients; experiment: mRNA level quantification by real-time PCR (TaqMan) of sorted T cells; type: cell-based, human
[4] = test system: dnaJP1-specific T cells in PBMCs from patients with RA; experiment: T cell capture (TCC) with aAPCs: number of dnaJP1-specific T cells; type: cell-based, human
[5] = test system: dnaJP1-specific CD3+ cells of RA patients; experiment: TCC combined with intracellular cytokine staining; type: cell-based, human
[6] = enrolled RA patients at screening, >2% above background of CD3+ T cells, responders/tested
[7] = end of the treatment period, n=4

## C[C@H](NC(=O)[C@H](C)NC(=O)[C@H](Cc1c[nH]cn1)NC(=O)CNC(=O)[C@H](Cc1ccc(O)cc1)NC(=O)[C@H](CCC(N)=O)NC(=O)[C@H](CC(=O)O)NC(=O)[C@H](Cc1ccc(O)cc1)NC(=O)[C@H](C)NC(=O)[C@H](C)NC(=O)[C@H](CCCNC(=N)N)NC(=O)[C@H](CCCCN)NC(=O)[C@H](CCC(N)=O)NC(=O)CCCC[C@@H]1SC[C@@H]2NC(=O)N[C@@H]21)C(=O)N[C@@H](Cc1ccccc1)C(=O)N[C@@H](CCC(=O)O)C(N)=O [dnaJP1] (Biotin-QKRAAYDQYGHAAFE-NH2)
[1]; Day 0 of oral dnaJP1 treatment
  DnaJP1-specific T cell reactivity: Proliferation (stimulation index): 2.6 ± 0.5
[1]; Day 56 of oral dnaJP1 treatment
  DnaJP1-specific T cell reactivity: Proliferation (stimulation index): 1.0 ± 0.1
[1]; Day 168 of oral dnaJP1 treatment
  DnaJP1-specific T cell reactivity: Proliferation (stimulation index): 0.8 ± 0.1
[1]; enrolled RA patients at screening, stimulation index >2, responders/tested
  patients with dnaJP1-induced T cell proliferation (inclusion criterion): 7/12
Patients with RA; 13 RA patients, dnaJP1 qd po for 6 months, open label
  patients classified as responders according to ACR 20 criteria: 84.6%
Patients with RA; RA patients treated with dnaJP1
  joint tenderness and swelling: reduced joint tenderness and swelling
Patients with RA; no placebo control, data not shown
  physician- and patient-generated clinical data (joint scores, disease activity, RADAR): marked improvement from baseline
[2]; Day 0
  DnaJP1-specific T cell reactivity: IFN-γ: 11.0 ± 3.7 Percent CD3+/cytokine+
  DnaJP1-specific T cell reactivity: IL-2: 2.1 ± 1.5 Percent CD3+/cytokine+
  DnaJP1-specific T cell reactivity: IL-4: −0.3 ± 0.4 Percent CD3+/cytokine+
  DnaJP1-specific T cell reactivity: IL-10: −1.1 ± 1.2 Percent CD3+/cytokine+
  DnaJP1-specific T cell reactivity: TNF-α: 9.7 ± 3.9 Percent CD3+/cytokine+
[2]; Day 56
  DnaJP1-specific T cell reactivity: IFN-γ: 2.5 ± 1.3 Percent CD3+/cytokine+
  DnaJP1-specific T cell reactivity: IL-2: 1.4 ± 1.1 Percent CD3+/cytokine+
  DnaJP1-specific T cell reactivity: IL-4: 0.9 ± 1.0 Percent CD3+/cytokine+
  DnaJP1-specific T cell reactivity: IL-10: 0.2 ± 0.1 Percent CD3+/cytokine+
  DnaJP1-specific T cell reactivity: TNF-α: 0.3 ± 0.5 Percent CD3+/cytokine+
[2]; Day 168
  DnaJP1-specific T cell reactivity: IFN-γ: −1.9 ± 1.3 Percent CD3+/cytokine+
  DnaJP1-specific T cell reactivity: IL-2: −1.5 ± 2.1 Percent CD3+/cytokine+
  DnaJP1-specific T cell reactivity: IL-4: 3.3 ± 1.2 Percent CD3+/cytokine+
  DnaJP1-specific T cell reactivity: IL-10: 2.0 ± 1.1 Percent CD3+/cytokine+
  DnaJP1-specific T cell reactivity: TNF-α: −1.7 ± 1.0 Percent CD3+/cytokine+
[2]; [6]
  patients with dnaJP1-induced IFN-γ production (inclusion criterion): 8/15
  patients with dnaJP1-induced IL-2 production (inclusion criterion): 6/15
  patients with dnaJP1-induced TNF-α production (inclusion criterion): 6/15
[2]; from the second month, P<0.001 at day 168 vs day 0
  dnaJP1-induced T cell production of IL-10 and IL-4 during treatment: increased significantly from baseline
[2]; significant at the second month, persisted
  T cell proliferation and production of IFN-γ and TNF-α in response to dnaJP1 during treatment: strong decline
[3]; after tolerization, in vitro culture with dnaJP1, two patients, P<0.001
  Foxp3 expression by CD4+CD25bright cells: Significantly increased
[3]; [7]
  IFN-γ mRNA in dnaJP1-specific T cells: 0.081±0.0054 1/Ct proband-100/Ct GAPDH
  IL-10 mRNA in dnaJP1-specific T cells: 0.075±0.013 1/Ct proband-100/Ct GAPDH
[4]; after treatment, n=6, P=0.3
  number of dnaJP1-specific T cells as percentage of total T cells: 8.0±2.5%
[4]; before treatment, n=6
  number of dnaJP1-specific T cells as percentage of total T cells: 6.5±2.5%
[5]; after treatment, n=6, P<0.05
  percentage of cells producing IL-4 within the total dnaJP1-specific CD3+ population: 23.1±3.8%
[5]; after treatment, n=6, P=0.05
  percentage of CD3+/dnaJP1-specific cells producing IFN-γ: 7.9±1.4%
[5]; before treatment, n=6
  percentage of CD3+/dnaJP1-specific cells producing IFN-γ: 15.8±6.7%
  percentage of cells producing IL-4 within the total dnaJP1-specific CD3+ population: 8.4±5.4%
